Results are given in words; binding and its absence hold for the method and conditions named. Some entries that bind do so weakly or less than the wild type.
Tests used:
[1] = target: GM-CSF receptor, cognate for the murine GM-CSF constructs (UniProt Q00941); assay: SPR (Biacore), fusion captured on anti-human F(ab)2, 100 nM GM-CSF receptor injected
[2] = target: GM-CSF receptor, cognate for the murine GM-CSF constructs (UniProt Q00941); assay: SPR, fusion captured, cognate GM-CSF receptor at 100 nM

By UniProt entry, the sequences of proteins in these tests, tags left out. Residues count along the entry.
UniProt Q00941, residues 30-327: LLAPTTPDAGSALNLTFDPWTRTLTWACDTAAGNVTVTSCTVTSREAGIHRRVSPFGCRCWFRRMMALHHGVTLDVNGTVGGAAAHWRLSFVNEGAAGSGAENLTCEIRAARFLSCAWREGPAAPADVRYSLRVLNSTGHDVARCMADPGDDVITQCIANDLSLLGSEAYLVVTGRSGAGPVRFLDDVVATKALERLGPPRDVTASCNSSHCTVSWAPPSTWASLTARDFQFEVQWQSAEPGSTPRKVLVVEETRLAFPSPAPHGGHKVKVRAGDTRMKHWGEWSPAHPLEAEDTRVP

binding [1]: binds
binding [2]: binds
B1: CA645/GM-CSFCH1 (murine) (CA645 Fab with murine GM-CSF at the C-terminus of CH1, for comparison) (Fab, V domains shown)
VH: EVQLLESGGGLVQPGGSLRLSCAVSGIDLSNYAINWVRQAPGKGLEWIGIIWASGTTFYATWAKGRFTISRDNSKNTVYLQMNSLRAEDTAVYYCARTVPGYSTAPYFDLWGQGTLVTVSS
VL: DIQMTQSPSSVSASVGDRVTITCQSSPSVWSNFLSWYQQKPGKAPKLLIYEASKLTSGVPSRFSGSGSGTDFTLTISSLQPEDFATYYCGGGYSSISDTTFGGGTKVEIKR
